In PMC12785156:

Target: T1, AtHPPD-GFP (Arabidopsis thaliana) (UniProt P93836)
T1 sequence: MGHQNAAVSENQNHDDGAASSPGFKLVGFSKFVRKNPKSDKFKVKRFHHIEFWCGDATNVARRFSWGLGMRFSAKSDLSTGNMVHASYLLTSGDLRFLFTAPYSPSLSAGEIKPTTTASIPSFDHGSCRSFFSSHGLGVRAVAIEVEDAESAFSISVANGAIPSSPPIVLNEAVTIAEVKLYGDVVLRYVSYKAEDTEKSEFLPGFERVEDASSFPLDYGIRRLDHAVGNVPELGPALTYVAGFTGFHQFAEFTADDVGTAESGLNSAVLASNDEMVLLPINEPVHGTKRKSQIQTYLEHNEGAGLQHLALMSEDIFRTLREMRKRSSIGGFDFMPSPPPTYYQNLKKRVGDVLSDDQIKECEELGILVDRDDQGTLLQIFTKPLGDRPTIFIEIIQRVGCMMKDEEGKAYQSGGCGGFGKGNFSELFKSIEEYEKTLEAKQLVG
Assay: affinity purification with mass spectrometry; total proteins of seedlings overexpressing AtHPPD-GFP, IP with anti-GFP agarose, LC-MS/MS; seedlings overexpressing GFP alone as control

B1: PUB11 (endogenous, Arabidopsis seedlings) (enzyme, UniProt Q8GUG9 1-612)
chain: MAGGIVSPASLLDLIADIVEIPLNTGMFKKDCADLTRRVCLLTHLLEEIRDSTPIDSAASSSSENDWWSDLVVGLQAAKRLLSTARFQARDSSDGAAKRISFQFQCVTWKLEKALSNLPYDLYDISDEVGEQVELARSQLRRAMQRYGSLNSNKFSSALSEPMERDGFSNVIKIKAEEKLESVSETLHFGEEEEKQSSPPLRRSSSISLAYYLSKDADTDRLDKMVNKNTDESKKSDKLTIPVDFLCPVSLELMKDPVIVATGQTYERAYIQRWIDCGNLTCPKTQQKLENFTLTPNYVLRSLISRWCAEHNIEQPAGYINGRTKNSGDMSVIRALVQRLSSRSTEDRRNAVSEIRSLSKRSTDNRILIAEAGAIPVLVNLLTSEDVATQENAITCVLNLSIYENNKELIMFAGAVTSIVQVLRAGTMEARENAAATLFSLSLADENKIIIGGSGAIPALVDLLENGTPRGKKDAATALFNLCIYHGNKGRAVRAGIVTALVKMLSDSTRHRMVDEALTILSVLANNQDAKSAIVKANTLPALIGILQTDQTRNRENAAAILLSLCKRDTEKLITIGRLGAVVPLMDLSKNGTERGKRKAISLLELLRKACQ
  binding: binds

These are yes or no findings as the source states them, for the method shown. In cells and extracts the contact can be indirect. A yes stands for co-enrichment or nearness to the bait. Other partners may have been found. Tags and fused reporters may be left off the sequences shown.
